In the assay the target is T1, CLN7 (human (endogenous in SH-SY5Y)) (UniProt Q8NHS3).
T1 sequence: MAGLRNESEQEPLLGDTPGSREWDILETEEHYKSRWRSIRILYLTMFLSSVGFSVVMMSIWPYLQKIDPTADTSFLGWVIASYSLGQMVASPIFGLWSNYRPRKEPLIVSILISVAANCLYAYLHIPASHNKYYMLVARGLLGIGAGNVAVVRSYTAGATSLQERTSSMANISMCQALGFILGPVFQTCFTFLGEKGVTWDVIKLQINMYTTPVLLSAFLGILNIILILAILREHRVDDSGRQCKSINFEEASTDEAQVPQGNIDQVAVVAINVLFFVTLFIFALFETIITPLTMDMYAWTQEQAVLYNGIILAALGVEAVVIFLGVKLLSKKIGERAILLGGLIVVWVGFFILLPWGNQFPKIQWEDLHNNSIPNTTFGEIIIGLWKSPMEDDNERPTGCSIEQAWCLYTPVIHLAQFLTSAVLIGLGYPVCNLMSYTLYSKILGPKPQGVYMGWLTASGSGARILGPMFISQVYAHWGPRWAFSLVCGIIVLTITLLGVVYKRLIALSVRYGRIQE
The assay is described as follows: affinity purification with mass spectrometry; endogenous CLN7 immunoprecipitated from 2.5 mg SH-SY5Y lysate with a polyclonal anti-CLN7 antibody raised against L9 (351-421aa, Proteintech) on G-sepharose beads; IgG as non-specific binding control; 4 independent replicates; cells under steady state culture conditions.

These are yes or no findings as the source states them, for the method shown. In cells and extracts the contact can be indirect. A yes stands for co-enrichment or nearness to the bait. Other partners may have been found.

B1: DHX57 (protein, UniProt Q6P158 1-1386)
chain: MSSSVRRKGKPGKGGGKGSSRGGRGGRSHASKSHGSGGGGGGGGGGGGGNRKASSRIWDDGDDFCIFSESRRPSRPSNSNISKGESRPKWKPKAKVPLQTLHMTSENQEKVKALLRDLQEQDADAGSERGLSGEEEDDEPDCCNDERYWPAGQEPSLVPDLDPLEYAGLASVEPYVPEFTVSPFAVQKLSRYGFNTERCQAVLRMCDGDVGASLEHLLTQCFSETFGERMKISEAVNQISLDECMEQRQEEAFALKSICGEKFIERIQNRVWTIGLELEYLTSRFRKSKPKESTKNVQENSLEICKFYLKGNCKFGSKCRFKHEVPPNQIVGRIERSVDDSHLNAIEDASFLYELEIRFSKDHKYPYQAPLVAFYSTNENLPLACRLHISEFLYDKALTFAETSEPVVYSLITLLEEESEIVKLLTNTHHKYSDPPVNFLPVPSRTRINNPACHKTVIPNNSFVSNQIPEVEKASESEESDEDDGPAPVIVENESYVNLKKKISKRYDWQAKSVHAENGKICKQFRMKQASRQFQSILQERQSLPAWEERETILNLLRKHQVVVISGMTGCGKTTQIPQFILDDSLNGPPEKVANIICTQPRRISAISVAERVAKERAERVGLTVGYQIRLESVKSSATRLLYCTTGVLLRRLEGDTALQGVSHIIVDEVHERTEESDFLLLVLKDIVSQRPGLQVILMSATLNAELFSDYFNSCPVITIPGRTFPVDQFFLEDAIAVTRYVLQDGSPYMRSMKQISKEKLKARRNRTAFEEVEEDLRLSLHLQDQDSVKDAVPDQQLDFKQLLARYKGVSKSVIKTMSIMDFEKVNLELIEALLEWIVDGKHSYPPGAILVFLPGLAEIKMLYEQLQSNSLFNNRRSNRCVIHPLHSSLSSEEQQAVFVKPPAGVTKIIISTNIAETSITIDDVVYVIDSGKMKEKRYDASKGMESLEDTFVSQANALQRKGRAGRVASGVCFHLFTSHHYNHQLLKQQLPEIQRVPLEQLCLRIKILEMFSAHNLQSVFSRLIEPPHTDSLRASKIRLRDLGALTPDERLTPLGYHLASLPVDVRIGKLMLFGSIFRCLDPALTIAASLAFKSPFVSPWDKKEEANQKKLEFAFANSDYLALLQAYKGWQLSTKEGVRASYNYCRQNFLSGRVLQEMASLKRQFTELLSDIGFAREGLRAREIEKRAQGGDGVLDATGEEANSNAENPKLISAMLCAALYPNVVQVKSPEGKFQKTSTGAVRMQPKSAELKFVTKNDGYVHIHPSSVNYQVRHFDSPYLLYHEKIKTSRVFIRDCSMVSVYPLVLFGGGQVNVQLQRGEFVVSLDDGWIRFVAASHQVAELVKELRCELDQLLQDKIKNPSIDLCTCPRGSRIISTIVKLVTTQ
With B1, the binding entry is given as “binds”.

B2: DNAJC2 (protein, UniProt Q99543 1-621)
chain: MLLLPSAADGRGTAITHALTSASTLCQVEPVGRWFEAFVKRRNRNASASFQELEDKKELSEESEDEELQLEEFPMLKTLDPKDWKNQDHYAVLGLGHVRYKATQRQIKAAHKAMVLKHHPDKRKAAGEPIKEGDNDYFTCITKAYEMLSDPVKRRAFNSVDPTFDNSVPSKSEAKDNFFEVFTPVFERNSRWSNKKNVPKLGDMNSSFEDVDIFYSFWYNFDSWREFSYLDEEEKEKAECRDERRWIEKQNRATRAQRKKEEMNRIRTLVDNAYSCDPRIKKFKEEEKAKKEAEKKAKAEAKRKEQEAKEKQRQAELEAARLAKEKEEEEVRQQALLAKKEKDIQKKAIKKERQKLRNSCKTWNHFSDNEAERVKMMEEVEKLCDRLELASLQCLNETLTSCTKEVGKAALEKQIEEINEQIRKEKEEAEARMRQASKNTEKSTGGGGNGSKNWSEDDLQLLIKAVNLFPAGTNSRWEVIANYMNIHSSSGVKRTAKDVIGKAKSLQKLDPHQKDDINKKAFDKFKKEHGVVPQADNATPSERFEGPYTDFTPWTTEEQKLLEQALKTYPVNTPERWEKIAEAVPGRTKKDCMKRYKELVEMVKAKKAAQEQVLNASRAKK
For the molecule B2, the binding result is listed as “binds”.

B3: FAM120C (protein, UniProt Q9NX05 1-1096)
chain: MGVQGFQEFLEKRCPGAVVPVDLLKLARTVSRQQQQQHLHRQLPPTAALAPGAPRAARGSVPLQPPLPPAALGAYSGGAGPTRHHHPAHHFHHHGQAQPGLHPPLPPPPPPQLPGARVLVDAGSALPRLYGGYQTDWVCGGQWNAMLGYLSALCQACAYPGGDGLELVVMFPGGLGKDRLAEWGRRCQAERQTAQLIVGHVGNKGTPPPRAWFLPPACLSHCVRLALIRFRVKVFQSLEDHHLEVVAFFRENGFHGLLAHDSEYALYNIPSYYSSHALKLSWNGKNLTTNQFLMQEVAKQLGLKRMNFPIFAALLGNHILPDEDLAAFHWSLLGPEHPLASLKVRAHQLVLPPCDVVIKAVSEYVSSIKDPSNLDVVGKDVFKQSQSRTEDKIERFKKAVEYYSVTTKLSSLPVGPSFLGFRNNRLGNPPLPRNQVGTISAGKPMFSHQVPQKVKYPPPFPVGPNSSLLFSSHALGESHAFSEDPMLQNSPFANWAVSYDSSASQFPNYLPSKASPPLGPDSSHSSSSDGDEPNGASSDHITEAFHHQPEWGNPNRDRGSWAQPVDTGVSEASLGDGEPHIPSLLSMSTRNHMDITIPPLPPVAPEVLRVAEHRHRRGLMYPYIYHVLTKGEIKIPVCIEDECNMELPPAALLFRSARQYVYGVLFSLAETQRKMERLAMRRRLPVEVPSVILKEWSAYKGKSPQTPELVSALTFREWTCPNLKKLWLGKAVEDKNRRMRAFLACMKSDTPSMLNPANVPTHLLLMCCVLRYMVQWPGGRILHRHELDTFLAQAVSTQLYEPDRLQELKIEKLDARGIQLAALFMSGVDTALFANDACGQPVPWEHCCPWIYFDGKLFQSKLIKAGRERVSLVELCDGQADLATKVEKMRQSILEGVNMNHPPPSALLPSPTFVPPMVPSLYPVSLYSRAMGSMPLPPQGRSRGFAGLHPIPPQGGKLEIAGMVVGQWAGSRSSRGRGSFGMQVVSVGGPGKGHGKEQTGRGSKGHKKGNKQGSSDGVSKSLELHQGRSRSQVNGNSGALIKEEKSDHRLPAPSQCALSRDSNECNNGNRYLPMNNREKNHLQEQKLETVAQRKED
Turning to B3, the binding entry is given as “binds”.

B4: DHX30 (protein, UniProt Q7L2E3 1-1194)
chain: MFSLDSFRKDRAQHRQRQCKLPPPRLPPMCVNPTPGGTISRASRDLLKEFPQPKNLLNSVIGRALGISHAKDKLVYVHTNGPKKKKVTLHIKWPKSVEVEGYGSKKIDAERQAAAAACQLFKGWGLLGPRNELFDAAKYRVLADRFGSPADSWWRPEPTMPPTSWRQLNPESIRPGGPGGLSRSLGREEEEDEEEELEEGTIDVTDFLSMTQQDSHAPLRDSRGSSFEMTDDDSAIRALTQFPLPKNLLAKVIQIATSSSTAKNLMQFHTVGTKTKLSTLTLLWPCPMTFVAKGRRKAEAENKAAALACKKLKSLGLVDRNNEPLTHAMYNLASLRELGETQRRPCTIQVPEPILRKIETFLNHYPVESSWIAPELRLQSDDILPLGKDSGPLSDPITGKPYVPLLEAEEVRLSQSLLELWRRRGPVWQEAPQLPVDPHRDTILNAIEQHPVVVISGDTGCGKTTRIPQLLLERYVTEGRGARCNVIITQPRRISAVSVAQRVSHELGPSLRRNVGFQVRLESKPPSRGGALLFCTVGILLRKLQSNPSLEGVSHVIVDEVHERDVNTDFLLILLKGLQRLNPALRLVLMSATGDNERFSRYFGGCPVIKVPGFMYPVKEHYLEDILAKLGKHQYLHRHRHHESEDECALDLDLVTDLVLHIDARGEPGGILCFLPGWQEIKGVQQRLQEALGMHESKYLILPVHSNIPMMDQKAIFQQPPVGVRKIVLATNIAETSITINDIVHVVDSGLHKEERYDLKTKVSCLETVWVSRANVIQRRGRAGRCQSGFAYHLFPRSRLEKMVPFQVPEILRTPLENLVLQAKIHMPEKTAVEFLSKAVDSPNIKAVDEAVILLQEIGVLDQREYLTTLGQRLAHISTDPRLAKAIVLAAIFRCLHPLLVVVSCLTRDPFSSSLQNRAEVDKVKALLSHDSGSDHLAFVRAVAGWEEVLRWQDRSSRENYLEENLLYAPSLRFIHGLIKQFSENIYEAFLVGKPSDCTLASAQCNEYSEEEELVKGVLMAGLYPNLIQVRQGKVTRQGKFKPNSVTYRTKSGNILLHKSTINREATRLRSRWLTYFMAVKSNGSVFVRDSSQVHPLAVLLLTDGDVHIRDDGRRATISLSDSDLLRLEGDSRTVRLLKELRRALGRMVERSLRSELAALPPSVQEEHGQLLALLAELLRGPCGSFDVRKTADD
In the case of B4, the binding result is recorded as “binds”.

B5: EXOSC10 (protein, UniProt Q01780 1-885)
chain: MAPPSTREPRVLSATSATKSDGEMVLPGFPDADSFVKFALGSVVAVTKASGGLPQFGDEYDFYRSFPGFQAFCETQGDRLLQCMSRVMQYHGCRSNIKDRSKVTELEDKFDLLVDANDVILERVGILLDEASGVNKNQQPVLPAGLQVPKTVVSSWNRKAAEYGKKAKSETFRLLHAKNIIRPQLKFREKIDNSNTPFLPKIFIKPNAQKPLPQALSKERRERPQDRPEDLDVPPALADFIHQQRTQQVEQDMFAHPYQYELNHFTPADAVLQKPQPQLYRPIEETPCHFISSLDELVELNEKLLNCQEFAVDLEHHSYRSFLGLTCLMQISTRTEDFIIDTLELRSDMYILNESLTDPAIVKVFHGADSDIEWLQKDFGLYVVNMFDTHQAARLLNLGRHSLDHLLKLYCNVDSNKQYQLADWRIRPLPEEMLSYARDDTHYLLYIYDKMRLEMWERGNGQPVQLQVVWQRSRDICLKKFIKPIFTDESYLELYRKQKKHLNTQQLTAFQLLFAWRDKTARREDESYGYVLPNHMMLKIAEELPKEPQGIIACCNPVPPLVRQQINEMHLLIQQAREMPLLKSEVAAGVKKSGPLPSAERLENVLFGPHDCSHAPPDGYPIIPTSGSVPVQKQASLFPDEKEDNLLGTTCLIATAVITLFNEPSAEDSKKGPLTVAQKKAQNIMESFENPFRMFLPSLGHRAPVSQAAKFDPSTKIYEISNRWKLAQVQVQKDSKEAVKKKAAEQTAAREQAKEACKAAAEQAISVRQQVVLENAAKKRERATSDPRTTEQKQEKKRLKISKKPKDPEPPEKEFTPYDYSQSDFKAFAGNSKSKVSSQFDPNKQTPSGKKCIAAKKIKQSVGNKSMSFPTGKSDRGFRYNWPQR
As for B5, the binding result was “binds”.

B6: G3BP2 (protein, UniProt Q9UN86 1-482)
chain: MVMEKPSPLLVGREFVRQYYTLLNKAPEYLHRFYGRNSSYVHGGVDASGKPQEAVYGQNDIHHKVLSLNFSECHTKIRHVDAHATLSDGVVVQVMGLLSNSGQPERKFMQTFVLAPEGSVPNKFYVHNDMFRYEDEVFGDSEPELDEESEDEVEEEQEERQPSPEPVQENANSGYYEAHPVTNGIEEPLEESSHEPEPEPESETKTEELKPQVEEKNLEELEEKSTTPPPAEPVSLPQEPPKAFSWASVTSKNLPPSGTVSSSGIPPHVKAPVSQPRVEAKPEVQSQPPRVREQRPRERPGFPPRGPRPGRGDMEQNDSDNRRIIRYPDSHQLFVGNLPHDIDENELKEFFMSFGNVVELRINTKGVGGKLPNFGFVVFDDSEPVQRILIAKPIMFRGEVRLNVEEKKTRAARERETRGGGDDRRDIRRNDRGPGGPRGIVGGGMMRDRDGRGPPPRGGMAQKLGSGRGTGQMEGRFTGQRR
B6: the binding entry was “binds”.
